The reference is the same well before dosing, and untreated signal decays as well.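 Fibroblast labels denote human fibroblasts, mainly primary ones from uterus (C12385, HUF), lung (H6013), bone (Hs27A), adrenal (HADF) and skin (WS1), plus mammary HMF and breast cancer-associated Hs343T. Cancer cells are basal-like or mesenchymal-like triple-negative breast cancer lines. A hit is a response shift exceeding 3x replicate standard deviation. The tissue of the other fibroblasts is not given here.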
System: HCC1143
Assay: relative JC-1 red fluorescence (viability) vs pre-drug, coculture with fibroblast (fraction); higher = more viable cancer cells
Procedure: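 JC-1 labelled TNBC cells cocultured 1:1 (1,500 cells each) with CellTrace Violet stained primary or stromal fibroblasts in 384-well plates in FluoroBrite medium, treated with one of 42 anticancer drugs at 0.1, 1, 10 or 100 uM. JC-1 red fluorescence (mitochondrial integrity in cancer cells only) was read by plate reader every 8 h for 72 h. Values are normalised to each well's pre-drug value. The stock of one drug was tenfold lower, so its dose labels may be too high.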

CC/C(=C(\c1ccccc1)c1ccc(OCCN(C)C)cc1)c1ccccc1 [Tamoxifen]
relative JC-1 red fluorescence
Settings | 8 h | 16 h | 24 h | 32 h | 40 h | 48 h | 56 h | 64 h | 72 h
0.1 µM, coculture fibroblast: C12385 | 0.867 | 0.7777 | 0.7113 | 0.648 | 0.588 | 0.55 | 0.5035 | 0.474 | 0.457
0.1 µM, coculture fibroblast: H6013 | 0.838 | 0.762 | 0.748 | 0.752 | 0.683 | 0.683 | 0.645 | 0.627 | 0.593
0.1 µM, coculture fibroblast: H6019 | 0.7879 | 0.7064 | 0.6622 | 0.5998 | 0.563 | 0.538 | 0.488 | 0.442 | 0.4
0.1 µM, coculture fibroblast: H6076 | 0.7989 | 0.735 | 0.708 | 0.686 | 0.634 | 0.616 | 0.59 | 0.569 | 0.581
0.1 µM, coculture fibroblast: H6231 | 0.8136 | 0.791 | 0.672 | 0.612 | 0.5805 | 0.5556 | 0.5137 | 0.481 | 0.4603
0.1 µM, coculture fibroblast: HADF | 0.73 | 0.627 | 0.602 | 0.597 | 0.494 | 0.469 | 0.434 | 0.404 | 0.388
0.1 µM, coculture fibroblast: HCFa | 0.785 | 0.69 | 0.6561 | 0.6422 | 0.5537 | 0.5288 | 0.483 | 0.446 | 0.424
0.1 µM, coculture fibroblast: HCPF | 0.827 | 0.82 | 0.739 | 0.6577 | 0.651 | 0.6102 | 0.581 | 0.5457 | 0.5286
0.1 µM, coculture fibroblast: HHSteC | 0.825 | 0.73 | 0.703 | 0.677 | 0.604 | 0.576 | 0.532 | 0.503 | 0.454
0.1 µM, coculture fibroblast: HMF | 0.794 | 0.828 | 0.721 | 0.637 | 0.64 | 0.603 | 0.564 | 0.535 | 0.513
0.1 µM, coculture fibroblast: HPFa | 0.9076 | 0.8105 | 0.766 | 0.671 | 0.605 | 0.567 | 0.5 | 0.455 | 0.408
0.1 µM, coculture fibroblast: HUF | 0.853 | 0.7422 | 0.699 | 0.629 | 0.582 | 0.559 | 0.51 | 0.482 | 0.455
0.1 µM, coculture fibroblast: Hs5 | 0.861 | 0.849 | 0.82 | 0.825 | 0.75 | 0.736 | 0.722 | 0.703 | 0.706
0.1 µM, coculture fibroblast: Hs27A | 0.722 | 0.63 | 0.603 | 0.604 | 0.498 | 0.494 | 0.442 | 0.406 | 0.358
0.1 µM, coculture fibroblast: Hs343T | 0.823 | 0.802 | 0.7437 | 0.689 | 0.6512 | 0.613 | 0.564 | 0.538 | 0.518
0.1 µM, coculture fibroblast: WS1 | 0.8279 | 0.7237 | 0.6587 | 0.578 | 0.51 | 0.469 | 0.4238 | 0.3889 | 0.3613
1 µM, coculture fibroblast: C12385 | 0.859 | 0.7609 | 0.7173 | 0.658 | 0.597 | 0.552 | 0.517 | 0.476 | 0.456
1 µM, coculture fibroblast: H6013 | 0.841 | 0.793 | 0.76 | 0.761 | 0.692 | 0.67 | 0.649 | 0.627 | 0.6078
1 µM, coculture fibroblast: H6019 | 0.8144 | 0.768 | 0.736 | 0.676 | 0.643 | 0.6073 | 0.5659 | 0.521 | 0.4875
1 µM, coculture fibroblast: H6076 | 0.813 | 0.817 | 0.815 | 0.816 | 0.759 | 0.742 | 0.711 | 0.699 | 0.703
1 µM, coculture fibroblast: H6231 | 0.831 | 0.8048 | 0.748 | 0.66 | 0.65 | 0.617 | 0.579 | 0.537 | 0.524
1 µM, coculture fibroblast: HADF | 0.737 | 0.6624 | 0.636 | 0.642 | 0.534 | 0.498 | 0.461 | 0.428 | 0.421
1 µM, coculture fibroblast: HCFa | 0.804 | 0.707 | 0.661 | 0.645 | 0.567 | 0.538 | 0.491 | 0.454 | 0.426
1 µM, coculture fibroblast: HCPF | 0.8253 | 0.802 | 0.77 | 0.706 | 0.695 | 0.662 | 0.631 | 0.601 | 0.59
1 µM, coculture fibroblast: HHSteC | 0.847 | 0.77 | 0.737 | 0.71 | 0.632 | 0.606 | 0.565 | 0.538 | 0.502
1 µM, coculture fibroblast: HMF | 0.809 | 0.8674 | 0.817 | 0.731 | 0.733 | 0.708 | 0.662 | 0.642 | 0.621
1 µM, coculture fibroblast: HPFa | 0.9126 | 0.839 | 0.803 | 0.712 | 0.659 | 0.616 | 0.543 | 0.488 | 0.436
1 µM, coculture fibroblast: HUF | 0.885 | 0.8 | 0.755 | 0.688 | 0.632 | 0.608 | 0.556 | 0.52 | 0.486
1 µM, coculture fibroblast: Hs5 | 0.8666 | 0.8556 | 0.826 | 0.819 | 0.731 | 0.705 | 0.674 | 0.652 | 0.64
1 µM, coculture fibroblast: Hs27A | 0.756 | 0.7 | 0.66 | 0.654 | 0.528 | 0.521 | 0.469 | 0.442 | 0.382
1 µM, coculture fibroblast: Hs343T | 0.8482 | 0.86 | 0.835 | 0.804 | 0.767 | 0.75 | 0.721 | 0.714 | 0.697
1 µM, coculture fibroblast: WS1 | 0.864 | 0.795 | 0.791 | 0.731 | 0.676 | 0.647 | 0.611 | 0.583 | 0.563
10 µM, coculture fibroblast: C12385 | 0.8859 | 0.8522 | 0.794 | 0.736 | 0.679 | 0.64 | 0.603 | 0.559 | 0.531
10 µM, coculture fibroblast: H6013 | 0.821 | 0.785 | 0.774 | 0.808 | 0.718 | 0.706 | 0.698 | 0.687 | 0.773
10 µM, coculture fibroblast: H6019 | 0.85992 | 0.849 | 0.834 | 0.767 | 0.703 | 0.684 | 0.738 | 0.762 | 0.715
10 µM, coculture fibroblast: H6076 | 0.8063 | 0.89 | 0.879 | 0.789 | 0.82 | 0.807 | 0.768 | 0.739 | 0.72
10 µM, coculture fibroblast: H6231 | 0.841 | 0.849 | 0.848 | 0.671 | 0.851 | 0.807 | 0.79 | 0.755 | 0.726
10 µM, coculture fibroblast: HADF | 0.7357 | 0.683 | 0.67 | 0.729 | 0.596 | 0.555 | 0.537 | 0.509 | 0.641
10 µM, coculture fibroblast: HCFa | 0.8487 | 0.8126 | 0.817 | 0.864 | 0.775 | 0.75 | 0.719 | 0.691 | 0.741
10 µM, coculture fibroblast: HCPF | 0.811 | 0.869 | 0.867 | 0.747 | 0.764 | 0.726 | 0.819 | 0.763 | 0.745
10 µM, coculture fibroblast: HHSteC | 0.853 | 0.8073 | 0.789 | 0.783 | 0.711 | 0.681 | 0.659 | 0.639 | 0.655
10 µM, coculture fibroblast: HMF | 0.8221 | 0.952 | 0.93036 | 0.761 | 0.865 | 0.8243 | 0.764 | 0.7265 | 0.6865
10 µM, coculture fibroblast: HPFa | 0.902 | 0.84 | 0.78654 | 0.687 | 0.639 | 0.606 | 0.572 | 0.531 | 0.506
10 µM, coculture fibroblast: HUF | 0.908 | 0.851 | 0.8242 | 0.7595 | 0.725 | 0.685 | 0.648 | 0.608 | 0.573
10 µM, coculture fibroblast: Hs5 | 0.8526 | 0.9693 | 0.946 | 0.866 | 0.829 | 0.796 | 0.751 | 0.722 | 0.69
10 µM, coculture fibroblast: Hs27A | 0.7694 | 0.7336 | 0.70508 | 0.765 | 0.594 | 0.555 | 0.537 | 0.518 | 0.6484
10 µM, coculture fibroblast: Hs343T | 0.8596 | 0.952 | 0.97 | 0.808 | 0.887 | 0.834 | 0.784 | 0.753 | 0.696
10 µM, coculture fibroblast: WS1 | 0.8645 | 0.8091 | 0.76978 | 0.722 | 0.673 | 0.636 | 0.595 | 0.559 | 0.5299

Source: the supplement of paper PMC6078165
